Results are given in words; binding and its absence hold for the method and conditions named. Binding seen in cells or lysates may run through a third protein. Some entries that bind do so weakly or less than the wild type. Each block holds one molecule with its values, some of them ahead of it.
Columns and labels:
[1] = biological target: T1, STMN1 (UniProt P16949); test: co-IP; antibody on magnetic beads incubated with lysate of STMN1-overexpressing NCI-H1299 cells overnight at 4 °C; STMN1 or HMGA1 precipitated, partner detected by western blotting
T1 sequence: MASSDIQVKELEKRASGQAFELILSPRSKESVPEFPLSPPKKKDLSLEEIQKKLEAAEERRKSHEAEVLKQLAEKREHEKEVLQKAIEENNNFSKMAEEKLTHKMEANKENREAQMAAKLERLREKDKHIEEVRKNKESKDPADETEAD

The chains behind the UniProt entries cited, without tags or fusion partners.
UniProt P17096: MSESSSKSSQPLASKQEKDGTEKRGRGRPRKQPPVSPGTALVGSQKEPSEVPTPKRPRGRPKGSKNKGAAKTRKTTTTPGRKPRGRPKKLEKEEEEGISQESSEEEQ

[2] = biological target: high mobility group AT-hook 1 (human (endogenous in NCI-H1299)) (UniProt P17096); test: as above

binding [1]: binds
Molecule: high mobility group AT-hook 1 (from UniProt P17096 1-107)

binding [2]: binds
B1: STMN1 (protein, UniProt P16949 1-149)
chain: T1 sequence

Reference: article PMC10878155
